The supplement of paper PMC11637464
Structures can show the parent of a compound that is named as a salt. Some of the results follow. Repeats are few or missing, and single values can be far off.

Test system: primary mouse Muller glia with Ascl1 overexpression
Assay: total cells recovered per well; higher = more cells recovered
Experimental: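 Primary P11 mouse Muller glia carrying dox-inducible Ascl1 were treated with Tocriscreen Stem Cell Library compounds at 0.1, 1 or 10 uM together with doxycycline for 5 days, then profiled by sci-Plex hashing and sci-RNA-seq2. Cells were annotated by marker genes and cell-type counts per well were size-factor adjusted. Read-outs are the log2 fold change of Neuronal (NeuPre + bipolar) and ProL cell counts versus the Ascl1-only control wells of the same collection day, plus the raw number of recovered cells per well. There is one well per dose, and wells with fewer than 20 cells were discarded.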

Compound	total cells recovered per well (0.1 µM)	total cells recovered per well (1 µM)	total cells recovered per well (10 µM)
Cc1nn(-c2ccccc2)c(C)c1C=NN1CCN(Cc2ccccc2)CC1 (collection day: 1)	72	86	72
CN(C)C(=N)NC(=N)N [Metformin hydrochloride] (collection day: 1)	102	129	99
COc1ccn2ncc(-c3nc4[nH]nc(NC(=O)c5ccc(F)cc5)c4cc3F)c2c1 (collection day: 2)	110	175	110
Nc1nc(N)c2nc(-c3cccc(Cl)c3)c(N)nc2n1 [Epiblastin A] (collection day: 2)	92	61	92
O=S(=O)(NCCNC/C=C/c1ccc(Br)cc1)c1cccc2cnccc12 [H 89 dihydrochloride] (collection day: 1)	92	79	
O=C(NC1CCOCC1)c1ccc(-c2cc(-c3c[nH]nc3-c3ccccn3)ccn2)cc1 (collection day: 2)	59	62	57
CNC1CCC(N(Cc2cc(-c3ccncc3)ccc2OC)C(=O)c2sc3c(F)ccc(F)c3c2Cl)CC1 (stereo not given) (collection day: 2)	113	83	
CC(=O)Nc1ccc(C(=O)Nc2ccccc2N)cc1 (collection day: 1)	76	94	67
OCCNC1CCCc2c1[nH]c1ccc(-c3ccccc3)cc21 (stereo not given) (collection day: 2)	124	97	
CCCCCC[C@@H]([C@@H](C)O)n1cnc2c(N)ncnc21 [EHNA hydrochloride] (collection day: 1)	43	51	
O=C(NO)c1ccc2[nH]c(=O)c(CCCc3ccccc3)nc2c1 (collection day: 2)	48	52	68
c1ccc2c(Oc3nc(Nc4ccc(N5CCOCC5)cc4)c4ncn(C5CCCCC5)c4n3)cccc2c1 [Purmorphamine] (collection day: 2)	132	103	57
O=c1n(CCCN2CCN(c3cccc(Cl)c3)CC2)nc2ccccn12 [Trazodone hydrochloride] (collection day: 2)	176	95	102
CN1CCC[C@@H]1CCO[C@](C)(c1ccccc1)c1ccc(Cl)cc1 [Clemastine fumarate] (collection day: 1)	50	41	
Nc1[nH]ncc1-c1cc(Cl)ccc1Oc1cc(F)c(S(=O)(=O)Nc2cscn2)cc1Cl (collection day: 2)	141	169	116

An excerpt from above, limited to total cells recovered per well (0.1 µM) and total cells recovered per well (1 µM):
Compound | total cells recovered per well (0.1 µM) | total cells recovered per well (1 µM)
Cc1nn(-c2ccccc2)c(C)c1C=NN1CCN(Cc2ccccc2)CC1 (collection day: 1) | 72 | 86
CCCCCC[C@@H]([C@@H](C)O)n1cnc2c(N)ncnc21 [EHNA hydrochloride] (collection day: 1) | 43 | 51
